# Experimental data taken from PubChem BioAssay.
# Where “and” joins values, the source holds several entries; their conditions need not be identical. Equal values may be shown once. Some of the results follow. Results with a measured potency or affinity are listed apart. Entries without a call are filed as inconclusive in the source.
# Test: Drosophila SCA1 whole organism dose response for polyglutamine toxicity reduction (AID 1595)
# Conditions: Drosophila SCA1 polyglutamine model, at 1 µM, stronger effect = higher value
row,Structure (SMILES),suppression of toxicity
1,Oc1c(Cl)cc(Cl)c2cccnc12,0
2,CC(C)=CCc1c2c(c3occ(-c4ccc(O)c(O)c4)c(=O)c3c1O)C=CC(C)(C)O2,0
3,CCCCCCCCCCCCCCCCCCOCC(O)CO (stereo not given),0
4,Cc1ccc(S(=O)(=O)NC(=O)NN2CCCCCC2)cc1,5.74
5,OCc1cc2c(cn1)[nH]c1ccccc12,1.43
6,COC(=O)[C@H]1[C@H]2C[C@H]3c4[nH]c5cc(OC)ccc5c4CCN3C[C@H]2C[C@@H](OC(=O)c2cc(OC)c(OC)c(OC)c2)[C@@H]1OC,4.29
7,Oc1c(I)cc(I)c2cccnc12,4.29
8,NCCCCCCNS(=O)(=O)c1cccc2c(Cl)cccc12,0 and 8.57 and 7.14
9,CO[C@H]1/C=C/O[C@@]2(C)Oc3c(C)c(O)c4c(O)c(c(C=NN5CCN(C)CC5)c(O)c4c3C2=O)NC(=O)/C(C)=C\C=C\C(C)[C@H](O)[C@@H](C)[C@@H](O)[C@@H](C)[C@@H](OC(C)=O)[C@@H]1C (stereo not given in full),0
10,COc1cc(NS(=O)(=O)c2ccc(N)cc2)nc(OC)n1,0
11,CCN(CC)CCNC(=O)COc1ccc(OC)cc1,1.43
12,CCC(C)C(N)C(=O)N1CCCC1C(=O)NC(C(=O)O)C(C)CC (stereo not given),15.7
13,CCCCNc1ccc(C(=O)OCCN(C)C)cc1,5.71
14,COc1cc(CNC(=O)CCCC/C=C/C(C)C)ccc1O,1.43
15,O=C(O)c1ccccc1OP(=O)(O)O,0
16,NC(=O)N1c2ccccc2C=Cc2ccccc21,4.29
17,CC(=O)OCC(=O)[C@@]1(O)CCC2C3CCC4=CC(=O)C=CC4(C)C3[C@@H](O)C[C@@]21C (stereo not given in full),0
18,Cc1c(NC(C)C)c(=O)n(-c2ccccc2)n1C,12.9
19,CCCCC[C@H](CC(=O)NO)C(=O)N[C@H](C(=O)N1CCC[C@H]1CO)C(C)C,0
20,C[C@H](CS)C(=O)N1CCC[C@H]1C(=O)O,5.71

row,Structure (SMILES),suppression of toxicity
1,CCOc1ccccc1OCC1CNCCO1 (stereo not given),0
2,CCCCC1(COC(=O)CCC(=O)O)C(=O)N(c2ccccc2)N(c2ccccc2)C1=O,8.57
3,CC(Cc1ccc(O)c(O)c1)(NN)C(=O)O (stereo not given),0
4,COc1cc2ccc(=O)oc2cc1O,0
5,CC[C@H](C)C(=O)O[C@H]1CCC=C2C=C[C@H](C)C(CCC3C[C@@H](O)CC(=O)O3)[C@H]21 (stereo not given in full),2.85
6,CCC(Cc1c(I)cc(I)c(N)c1I)C(=O)O (stereo not given),0
7,CCC(=O)OCC(=O)C1(OC(=O)CC)C(C)CC2C3CCC4=CC(=O)C=CC4(C)C3(Cl)C(O)CC21C (stereo not given),1.43
8,COc1ccc(C2Sc3ccccc3N(CCN(C)C)C(=O)C2OC(C)=O)cc1 (stereo not given),0
9,C#C[C@]1(O)CCC2C3CCC4=C(CCC(=O)C4)C3CC[C@@]21C (stereo not given in full),0
10,CC1(C)S[C@@H]2[C@H](NC(=O)Cc3ccccc3)C(=O)N2[C@H]1C(=O)O,2.85
11,CO[C@@]1(NC(=O)C(C(=O)O)c2ccc(O)cc2)C(=O)N2C(C(=O)O)=C(CSc3nnnn3C)CO[C@@H]21 (stereo not given in full),0
12,CC(CN1c2ccccc2Sc2ccccc21)N(C)C (stereo not given),7.14
13,Cc1c(N(C)CS(=O)(=O)O)c(=O)n(-c2ccccc2)n1C,0
14,Cc1cc(-c2ccccc2)nnc1NCCN1CCOCC1,4.29
15,CCC(=O)O[C@@H](O[P@](=O)(CCCCc1ccccc1)CC(=O)N1C[C@H](C2CCCCC2)C[C@H]1C(=O)O)C(C)C,1.43
16,CC(=O)N[C@@H]1[C@@H](O)[C@H](O)[C@@H](CO)O[C@H]1O,5.71
17,NCCCCC(N)C(=O)NCC(=O)NC(Cc1cnc[nH]1)C(=O)NC(CCCCN)C(=O)O (stereo not given),0
18,CSCCC(NC=O)C(=O)NC(CC(C)C)C(=O)NC(Cc1ccccc1)C(=O)O (stereo not given),1.43
19,O=C(O)c1cc(O)ccc1O,4.29
20,Oc1c(Cl)cc(Cl)c(Cl)c1Cc1c(O)c(Cl)cc(Cl)c1Cl,0

# Reprinted from above (3 entries):
row,Structure (SMILES),suppression of toxicity
14,Cc1cc(-c2ccccc2)nnc1NCCN1CCOCC1,4.29
15,CCC(=O)O[C@@H](O[P@](=O)(CCCCc1ccccc1)CC(=O)N1C[C@H](C2CCCCC2)C[C@H]1C(=O)O)C(C)C,1.43
16,CC(=O)N[C@@H]1[C@@H](O)[C@H](O)[C@@H](CO)O[C@H]1O,5.71
